Laboratory results reported in article doi:10.1101/672824.

The chains behind the UniProt entries cited, without tags or fusion partners. Where a name states a change or a piece, a line headed by the entry shows the natural chain unless it says otherwise. A line that says so, or that is headed by a name, gives the form on record, which may keep a tag or linker.
UniProt Q15672: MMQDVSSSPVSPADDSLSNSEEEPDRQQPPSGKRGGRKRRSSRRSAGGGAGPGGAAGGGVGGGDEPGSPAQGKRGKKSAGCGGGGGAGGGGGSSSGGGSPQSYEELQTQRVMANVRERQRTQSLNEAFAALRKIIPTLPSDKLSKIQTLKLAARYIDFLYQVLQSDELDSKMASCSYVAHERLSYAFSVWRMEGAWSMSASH
TRIP6 (A0A8I3MIK5, form named): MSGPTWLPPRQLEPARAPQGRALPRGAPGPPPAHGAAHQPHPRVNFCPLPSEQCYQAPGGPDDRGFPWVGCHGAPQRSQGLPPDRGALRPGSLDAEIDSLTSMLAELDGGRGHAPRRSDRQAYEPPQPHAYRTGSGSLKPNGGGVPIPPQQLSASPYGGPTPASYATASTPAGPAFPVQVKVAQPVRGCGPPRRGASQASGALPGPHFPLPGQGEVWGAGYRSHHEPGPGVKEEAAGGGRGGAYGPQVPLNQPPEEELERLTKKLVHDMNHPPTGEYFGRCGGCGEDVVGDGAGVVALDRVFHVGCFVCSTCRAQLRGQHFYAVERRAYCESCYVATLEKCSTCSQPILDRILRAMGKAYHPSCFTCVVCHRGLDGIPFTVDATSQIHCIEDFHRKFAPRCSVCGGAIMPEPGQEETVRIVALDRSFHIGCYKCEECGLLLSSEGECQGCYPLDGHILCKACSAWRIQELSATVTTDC
GATA1 (A0A8I3QVV2, form named): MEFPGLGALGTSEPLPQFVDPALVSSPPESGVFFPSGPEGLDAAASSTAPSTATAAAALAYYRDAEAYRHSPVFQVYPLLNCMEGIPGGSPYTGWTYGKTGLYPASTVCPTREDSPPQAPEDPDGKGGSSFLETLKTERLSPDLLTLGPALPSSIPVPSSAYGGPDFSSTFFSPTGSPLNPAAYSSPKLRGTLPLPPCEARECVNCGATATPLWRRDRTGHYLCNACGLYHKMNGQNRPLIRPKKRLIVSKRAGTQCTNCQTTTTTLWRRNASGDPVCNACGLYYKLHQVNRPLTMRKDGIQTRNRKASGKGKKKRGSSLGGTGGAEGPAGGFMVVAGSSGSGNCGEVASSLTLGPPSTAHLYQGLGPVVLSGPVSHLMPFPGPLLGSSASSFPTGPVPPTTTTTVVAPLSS

Biological target: human TWIST1 (hTWIST1) stably over-expressed in MDCK cells (human) (UniProt Q15672)
Assay: affinity purification with mass spectrometry

Row | binding | Substance
1 | binds | TRIP6 (from UniProt A0A8I3MIK5 1-478)
2 | binds | GATA1 (from UniProt A0A8I3QVV2 1-412)

Results are given in words; binding and its absence hold for the method and conditions named. In cells and extracts the contact can be indirect. Here binding means that the protein was enriched with, or labelled near, the bait; the list need not be complete.
